# Results from the supplement of paper PMC10032668.
# Amino acid sequences for entries named in this document (tags omitted).
# C3, P01024, UniProt P01024, whole entry: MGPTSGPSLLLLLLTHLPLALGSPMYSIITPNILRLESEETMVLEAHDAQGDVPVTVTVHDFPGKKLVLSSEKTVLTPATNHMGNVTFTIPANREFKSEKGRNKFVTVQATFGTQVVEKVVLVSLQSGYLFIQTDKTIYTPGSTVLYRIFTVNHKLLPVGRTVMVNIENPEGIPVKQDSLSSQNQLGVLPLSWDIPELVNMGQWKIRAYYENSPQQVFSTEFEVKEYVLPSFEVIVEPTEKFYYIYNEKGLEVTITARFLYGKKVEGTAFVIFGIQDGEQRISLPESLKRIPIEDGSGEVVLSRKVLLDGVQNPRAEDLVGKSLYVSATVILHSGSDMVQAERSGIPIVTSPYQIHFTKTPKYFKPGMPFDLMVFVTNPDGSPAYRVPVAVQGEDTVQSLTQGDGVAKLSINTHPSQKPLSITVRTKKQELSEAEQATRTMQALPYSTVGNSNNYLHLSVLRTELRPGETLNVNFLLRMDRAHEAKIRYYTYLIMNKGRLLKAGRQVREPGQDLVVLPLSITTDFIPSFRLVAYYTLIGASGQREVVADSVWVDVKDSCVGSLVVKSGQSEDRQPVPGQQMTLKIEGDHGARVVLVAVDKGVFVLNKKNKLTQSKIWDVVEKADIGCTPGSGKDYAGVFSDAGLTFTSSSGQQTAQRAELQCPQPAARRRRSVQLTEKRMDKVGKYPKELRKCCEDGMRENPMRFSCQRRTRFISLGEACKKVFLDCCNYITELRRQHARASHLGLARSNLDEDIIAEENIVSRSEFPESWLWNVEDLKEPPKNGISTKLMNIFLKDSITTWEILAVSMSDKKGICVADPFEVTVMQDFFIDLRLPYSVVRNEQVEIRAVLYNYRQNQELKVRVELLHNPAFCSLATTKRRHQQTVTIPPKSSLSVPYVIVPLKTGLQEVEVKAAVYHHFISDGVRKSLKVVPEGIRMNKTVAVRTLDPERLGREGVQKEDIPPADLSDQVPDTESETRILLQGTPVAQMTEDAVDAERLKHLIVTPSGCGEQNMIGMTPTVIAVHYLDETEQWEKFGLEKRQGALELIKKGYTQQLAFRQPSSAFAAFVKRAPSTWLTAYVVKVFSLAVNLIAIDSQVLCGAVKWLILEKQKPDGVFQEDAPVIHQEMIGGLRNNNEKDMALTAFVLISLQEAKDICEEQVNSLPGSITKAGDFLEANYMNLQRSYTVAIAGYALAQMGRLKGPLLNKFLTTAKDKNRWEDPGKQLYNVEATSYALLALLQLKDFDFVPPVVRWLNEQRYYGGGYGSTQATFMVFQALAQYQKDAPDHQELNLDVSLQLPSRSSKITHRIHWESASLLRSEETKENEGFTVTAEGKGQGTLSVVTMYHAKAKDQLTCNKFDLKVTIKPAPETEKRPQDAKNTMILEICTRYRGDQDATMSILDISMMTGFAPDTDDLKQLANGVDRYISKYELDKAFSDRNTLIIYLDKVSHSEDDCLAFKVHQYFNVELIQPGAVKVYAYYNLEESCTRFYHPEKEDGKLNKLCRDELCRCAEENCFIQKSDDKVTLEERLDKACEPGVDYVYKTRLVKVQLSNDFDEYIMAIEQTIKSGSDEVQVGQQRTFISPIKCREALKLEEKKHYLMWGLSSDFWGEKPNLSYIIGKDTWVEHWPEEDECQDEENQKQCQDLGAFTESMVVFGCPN
# FABP5, Q01469, UniProt Q01469, whole entry: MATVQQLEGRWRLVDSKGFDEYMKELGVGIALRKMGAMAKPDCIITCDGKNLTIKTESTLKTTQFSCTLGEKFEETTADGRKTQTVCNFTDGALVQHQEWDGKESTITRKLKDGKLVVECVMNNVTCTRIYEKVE
# TRAPPC2L, Q9UL33, UniProt Q9UL33, whole entry: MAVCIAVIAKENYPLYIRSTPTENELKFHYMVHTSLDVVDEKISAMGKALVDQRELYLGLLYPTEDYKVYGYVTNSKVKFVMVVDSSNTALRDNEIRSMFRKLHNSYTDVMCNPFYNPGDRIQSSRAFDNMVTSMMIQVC
# CKS2, P33552, UniProt P33552, whole entry: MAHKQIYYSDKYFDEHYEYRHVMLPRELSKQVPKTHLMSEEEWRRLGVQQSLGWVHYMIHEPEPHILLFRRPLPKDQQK
# CUL4B, Q13620, UniProt Q13620, whole entry: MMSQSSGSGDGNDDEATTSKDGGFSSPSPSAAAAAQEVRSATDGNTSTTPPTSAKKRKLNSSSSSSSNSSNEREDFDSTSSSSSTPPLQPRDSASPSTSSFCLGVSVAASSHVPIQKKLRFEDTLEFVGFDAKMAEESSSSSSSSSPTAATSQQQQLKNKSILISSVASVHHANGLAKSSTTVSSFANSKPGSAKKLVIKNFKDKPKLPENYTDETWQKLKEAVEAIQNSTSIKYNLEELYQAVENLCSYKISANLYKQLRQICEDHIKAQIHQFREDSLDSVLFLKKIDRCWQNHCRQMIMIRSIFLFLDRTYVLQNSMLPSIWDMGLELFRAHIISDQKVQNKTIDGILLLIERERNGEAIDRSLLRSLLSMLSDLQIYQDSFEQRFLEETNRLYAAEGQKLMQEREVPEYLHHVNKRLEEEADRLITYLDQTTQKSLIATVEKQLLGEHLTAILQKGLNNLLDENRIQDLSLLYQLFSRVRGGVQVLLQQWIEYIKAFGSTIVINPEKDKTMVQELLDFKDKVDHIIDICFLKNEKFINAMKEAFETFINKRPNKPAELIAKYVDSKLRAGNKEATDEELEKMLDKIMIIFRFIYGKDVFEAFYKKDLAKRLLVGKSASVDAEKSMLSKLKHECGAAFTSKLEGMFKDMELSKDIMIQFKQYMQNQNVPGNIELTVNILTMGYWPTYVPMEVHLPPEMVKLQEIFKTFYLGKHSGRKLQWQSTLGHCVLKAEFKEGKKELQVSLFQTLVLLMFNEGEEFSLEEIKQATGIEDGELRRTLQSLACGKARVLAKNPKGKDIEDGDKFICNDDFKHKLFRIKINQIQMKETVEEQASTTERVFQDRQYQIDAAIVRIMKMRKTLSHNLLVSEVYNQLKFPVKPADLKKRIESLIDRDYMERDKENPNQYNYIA
# NDUFB7, P17568, UniProt P17568, whole entry: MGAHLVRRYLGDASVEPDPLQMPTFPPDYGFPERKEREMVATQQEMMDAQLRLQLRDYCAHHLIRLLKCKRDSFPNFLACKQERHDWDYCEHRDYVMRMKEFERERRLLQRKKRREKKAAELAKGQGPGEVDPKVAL
# The list shows a part of the results. The list holds hits alone, and they repeat only in part.
# B1: CRNDE (peptide)
# chain: DSEDKEDATGNVEMK
# B2: PVT1 (peptide)
# chain: AVAECLMDSYSLDVH
# B3: LINC00881_2 (peptide)
# chain: GETHTDRGSGMTGKG
# B4: THAP7 (peptide)
# chain: TTRGEACGWPTASGW
# Assays:
# Experiment in all cases: PRISMA enrichment of interactor (LFQ) in peptide spot vs all other peptide spots (log2 fold change); higher = stronger / more specific binding of the interactor to the peptide
# [1] = biological target: BANF1, O75531
# Description: (§1)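 PRISMA: 15-aa overlapping tiles (offset 8 aa) of 60 microproteins, plus SOS1/GLUT1 control peptides, were spot-synthesized on cellulose membranes in triplicate. Membranes were incubated with benzonase-treated HEK293T lysate, and bound proteins were identified by LC-MS/MS with LFQ. Enrichment is the log2 fold change of each protein in one spot versus all other spots. Only interactors passing the significance cutoff are listed.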
# [2] = biological target: RPL10, P27635
# Description: as §1
# [3] = biological target: SERF2, P84101
# Description: as §1
# [4] = biological target: BAZ1B, Q9UIG0
# Description: as §1
# [5] = biological target: C19orf53, Q9UNZ5
# Description: as §1
# [6] = biological target: C3, P01024
# Description: as §1
# [7] = biological target: CEP290, O15078
# Description: as §1
# [8] = biological target: CHD1, O14646
# Description: as §1
# [9] = biological target: COL4A3BP, Q9Y5P4
# Description: as §1
# [10] = biological target: EARS2, Q5JPH6
# Description: as §1
# [11] = biological target: EHD4, Q9H223
# Description: as §1
# [12] = biological target: EMG1, Q92979
# Description: as §1
# [13] = biological target: FABP5, Q01469
# Description: as §1
# [14] = biological target: HP, P00738
# Description: as §1
# [15] = biological target: IDH3B, O43837
# Description: as §1
# [16] = biological target: MRPL41, Q8IXM3
# Description: as §1
# [17] = biological target: MRPS15, P82914
# Description: as §1
# [18] = biological target: MRPS5, P82675
# Description: as §1
# [19] = biological target: NUP93, Q8N1F7
# Description: as §1
# [20] = biological target: PRDX2, P32119
# Description: as §1
# [21] = biological target: PRDX3, P30048
# Description: as §1
# [22] = biological target: SF3B4, Q15427
# Description: as §1
# [23] = biological target: TACO1, Q9BSH4
# Description: as §1
# [24] = biological target: TEX10, Q9NXF1
# Description: as §1
# [25] = biological target: TFB2M, Q9H5Q4
# Description: as §1
# [26] = biological target: TRAPPC2L, Q9UL33
# Description: as §1
# [27] = biological target: BASP1, P80723
# Description: as §1
# [28] = biological target: CKS2, P33552
# Description: as §1
# [29] = biological target: CST4, P01036
# Description: as §1
# [30] = biological target: CUL4B, Q13620
# Description: as §1
# [31] = biological target: DBR1, Q9UK59
# Description: as §1
# [32] = biological target: HDGF, P51858
# Description: as §1
# [33] = biological target: MAGED2, Q9UNF1
# Description: as §1
# [34] = biological target: MXRA7, P84157
# Description: as §1
# [35] = biological target: PNISR, Q8TF01
# Description: as §1
# [36] = biological target: RRP15, Q9Y3B9
# Description: as §1
# [37] = biological target: SART1, O43290
# Description: as §1
# [38] = biological target: BAZ1A, Q9NRL2
# Description: as §1
# [39] = biological target: DDX49, Q9Y6V7
# Description: as §1
# [40] = biological target: NDUFB7, P17568
# Description: as §1
# [41] = biological target: RBX1, P62877
# Description: as §1
# [42] = biological target: SPCS2, Q15005
# Description: as §1
binder,measurement,setting,value
B1,PRISMA enrichment of interactor (log2),[1],6.31
same,PRISMA enrichment of interactor (log2),[2],4.63
same,PRISMA enrichment of interactor (log2),[3],8.06
B2,PRISMA enrichment of interactor (log2),[4],5.53
same,PRISMA enrichment of interactor (log2),[5],7.95
same,PRISMA enrichment of interactor (log2),[6],5.39
same,PRISMA enrichment of interactor (log2),[7],6.3
same,PRISMA enrichment of interactor (log2),[8],5.31
same,PRISMA enrichment of interactor (log2),[9],5.27
same,PRISMA enrichment of interactor (log2),[10],7.62
same,PRISMA enrichment of interactor (log2),[11],6.1
same,PRISMA enrichment of interactor (log2),[12],5.72
same,PRISMA enrichment of interactor (log2),[13],5.58
same,PRISMA enrichment of interactor (log2),[14],5.31
same,PRISMA enrichment of interactor (log2),[15],6.79
same,PRISMA enrichment of interactor (log2),[16],5.3
same,PRISMA enrichment of interactor (log2),[17],5.92
same,PRISMA enrichment of interactor (log2),[18],10.9
same,PRISMA enrichment of interactor (log2),[19],5.58
same,PRISMA enrichment of interactor (log2),[20],7.12
same,PRISMA enrichment of interactor (log2),[21],5.08
same,PRISMA enrichment of interactor (log2),[3],5.81
same,PRISMA enrichment of interactor (log2),[22],4.4
same,PRISMA enrichment of interactor (log2),[23],5.79
same,PRISMA enrichment of interactor (log2),[24],6.65
same,PRISMA enrichment of interactor (log2),[25],4.92
same,PRISMA enrichment of interactor (log2),[26],4.47
B3,PRISMA enrichment of interactor (log2),[27],4.57
same,PRISMA enrichment of interactor (log2),[28],5.04
same,PRISMA enrichment of interactor (log2),[29],5.38
same,PRISMA enrichment of interactor (log2),[30],4.41
same,PRISMA enrichment of interactor (log2),[31],5.44
same,PRISMA enrichment of interactor (log2),[32],5.05
same,PRISMA enrichment of interactor (log2),[33],4.8
same,PRISMA enrichment of interactor (log2),[34],5.71
same,PRISMA enrichment of interactor (log2),[35],4.22
same,PRISMA enrichment of interactor (log2),[36],4.71
same,PRISMA enrichment of interactor (log2),[37],4.99
B4,PRISMA enrichment of interactor (log2),[38],6.68
same,PRISMA enrichment of interactor (log2),[39],5.22
same,PRISMA enrichment of interactor (log2),[40],7.45
same,PRISMA enrichment of interactor (log2),[41],5.74
same,PRISMA enrichment of interactor (log2),[42],5.31

# Retrieved one by one from the entries so far, 2 records:
binder,measurement,setting,value
B2,PRISMA enrichment of interactor (log2),[17],5.92
same,PRISMA enrichment of interactor (log2),[20],7.12
